No constants are given. Whether binding was seen depends on the method and setting. In cells and extracts the contact can be indirect. Some entries that bind do so weakly or less than the wild type.
Target: Human mature CDNF BiFC fusions (VN-CDNF and CDNF-VC) (human) (UniProt Q49AH0)
Assay: split reporter; Venus bimolecular fluorescence complementation in living HEK 293 cells, equimolar plasmids, 48 h after transfection, epifluorescence microscopy

**Q.** How did the binding turn out when “Human mature CDNF BiFC fusions (VN-CDNF and CDNF-VC) (from UniProt Q49AH0 25-187)” was run?
**A.** Its binding is “binds”.
